We go through five compounds from patent US8530461B2 (Boehringer Ingelheim International GmbH, priority 2011, dated 2013).

Chains of the proteins cited; added tags and fusions are not shown. Residues count along the entry.
UniProt O00763, 129-2458 limits assumed: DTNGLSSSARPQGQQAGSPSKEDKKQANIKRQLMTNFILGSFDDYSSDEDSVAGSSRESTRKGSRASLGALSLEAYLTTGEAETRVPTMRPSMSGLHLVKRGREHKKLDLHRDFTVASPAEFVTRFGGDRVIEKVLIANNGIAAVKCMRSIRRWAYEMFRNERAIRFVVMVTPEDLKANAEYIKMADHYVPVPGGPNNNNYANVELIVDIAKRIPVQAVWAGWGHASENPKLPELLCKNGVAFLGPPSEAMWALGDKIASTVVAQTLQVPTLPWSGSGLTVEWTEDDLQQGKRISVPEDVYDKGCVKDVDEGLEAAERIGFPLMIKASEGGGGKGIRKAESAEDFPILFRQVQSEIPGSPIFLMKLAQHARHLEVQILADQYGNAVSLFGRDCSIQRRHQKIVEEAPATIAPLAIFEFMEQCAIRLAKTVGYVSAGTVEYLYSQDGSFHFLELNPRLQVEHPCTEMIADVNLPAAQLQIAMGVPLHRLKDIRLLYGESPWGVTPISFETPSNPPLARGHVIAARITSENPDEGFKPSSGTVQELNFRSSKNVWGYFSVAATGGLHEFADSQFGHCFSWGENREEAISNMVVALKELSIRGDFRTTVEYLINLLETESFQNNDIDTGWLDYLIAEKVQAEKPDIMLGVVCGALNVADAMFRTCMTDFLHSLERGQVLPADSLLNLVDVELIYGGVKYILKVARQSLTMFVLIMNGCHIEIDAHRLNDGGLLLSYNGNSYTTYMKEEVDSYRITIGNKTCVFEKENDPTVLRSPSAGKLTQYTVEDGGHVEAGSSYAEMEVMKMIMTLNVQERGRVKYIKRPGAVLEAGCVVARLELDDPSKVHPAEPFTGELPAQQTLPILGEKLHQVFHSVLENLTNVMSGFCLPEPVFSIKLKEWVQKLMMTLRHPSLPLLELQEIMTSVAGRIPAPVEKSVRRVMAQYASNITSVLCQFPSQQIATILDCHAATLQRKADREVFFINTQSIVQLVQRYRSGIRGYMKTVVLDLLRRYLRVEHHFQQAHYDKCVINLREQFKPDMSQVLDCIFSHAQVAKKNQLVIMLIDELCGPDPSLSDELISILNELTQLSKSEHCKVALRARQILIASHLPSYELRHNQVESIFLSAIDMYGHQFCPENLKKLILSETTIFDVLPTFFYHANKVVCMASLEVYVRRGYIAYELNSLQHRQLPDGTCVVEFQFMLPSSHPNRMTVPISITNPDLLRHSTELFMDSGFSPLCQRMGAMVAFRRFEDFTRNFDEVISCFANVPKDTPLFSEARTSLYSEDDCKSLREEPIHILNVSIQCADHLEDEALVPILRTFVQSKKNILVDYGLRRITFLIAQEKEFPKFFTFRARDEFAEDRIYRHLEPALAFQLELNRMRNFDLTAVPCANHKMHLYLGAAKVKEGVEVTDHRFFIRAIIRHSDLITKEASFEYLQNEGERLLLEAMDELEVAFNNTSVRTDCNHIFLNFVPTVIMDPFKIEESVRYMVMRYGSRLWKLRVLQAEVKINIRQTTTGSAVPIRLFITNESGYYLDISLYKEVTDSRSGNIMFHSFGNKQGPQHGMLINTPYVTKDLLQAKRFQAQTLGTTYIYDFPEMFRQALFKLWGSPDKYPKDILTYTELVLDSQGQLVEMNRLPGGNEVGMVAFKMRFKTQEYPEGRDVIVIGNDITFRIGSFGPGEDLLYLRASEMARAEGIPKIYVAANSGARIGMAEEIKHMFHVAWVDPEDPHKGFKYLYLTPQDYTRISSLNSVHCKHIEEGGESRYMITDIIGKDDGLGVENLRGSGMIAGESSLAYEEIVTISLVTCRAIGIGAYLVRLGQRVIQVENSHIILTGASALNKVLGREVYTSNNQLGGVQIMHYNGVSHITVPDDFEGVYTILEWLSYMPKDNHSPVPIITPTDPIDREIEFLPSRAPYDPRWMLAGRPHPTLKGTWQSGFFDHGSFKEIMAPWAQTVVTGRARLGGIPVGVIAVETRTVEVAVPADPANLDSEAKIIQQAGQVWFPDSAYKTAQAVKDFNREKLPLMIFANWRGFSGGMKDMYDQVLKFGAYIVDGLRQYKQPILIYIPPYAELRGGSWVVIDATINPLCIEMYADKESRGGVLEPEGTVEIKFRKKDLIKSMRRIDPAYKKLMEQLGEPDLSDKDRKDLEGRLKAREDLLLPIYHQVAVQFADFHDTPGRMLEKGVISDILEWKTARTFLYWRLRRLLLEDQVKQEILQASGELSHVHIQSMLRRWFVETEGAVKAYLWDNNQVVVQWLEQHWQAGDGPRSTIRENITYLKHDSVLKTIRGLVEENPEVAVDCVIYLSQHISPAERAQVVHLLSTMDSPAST

pIC50: −log10 of the molar value. Structures were worked out from names or drawings and are uncertain.

The target in the assay is human ACC2 (Homo sapiens, UniProt O00763). Put plainly: ACC2 assay, spectrophotometric 384 well assay (NADH-linked, coupled lactate dehydrogenase/pyruvate kinase). Conditions: human ACC2 construct lacking 128 N-terminal amino acids, 25° C., 340 nm, 15 minutes. On the procedure: Spectrophotometric 384 Well Assay
Malonyl CoA formation by acetyl CoA carboxylases is stoichometrically linked to the consumption of ATP. ACC2 activity is measured in a NADH-linked kinetic method measuring ADP generated during the ACC reaction using a coupled lactate dehydrogenase/pyruvate kinase reaction.
For biological testing, a human ACC2 construct which lacks the 128 amino acids at the N-terminus for increased solubility (nt 385-6966 in Genbank entry AJ575592) is cloned. The protein is then expressed in insect cells using a baculoviral expression system. Protein purification is performed by anion exchange.
All compounds are dissolved in dimethyl sulfoxide (DMSO) to a concentration of 10 mM.
Assay reactions are then carried out in 384-well plates, with hACC2 in an appropriate dilution and at final assay concentrations (f.c.) of 100 mM Tris (pH 7.5), 10 mM trisodium citrate, 25 mM KHCO3, 10 mM MgCl2, 0.5 mg/ml BSA, 3.75 mM reduced L-glutathione, 15 U/ml lactate dehydrogenase, 0.5 mM phosphoenolpyruvate, 15 U/ml pyruvate kinase, compounds at different concentrations at final DMSO concentrations of 1%.
The enzymatic reaction is then started by addition of a mixture of NADH, acetyl Coenzyme A (both […].) and ATP (500 uM f.c.). The decrease of the optical density (slope S) is then determined at 25° C. at a wavelength of 340 nm over 15 minutes in a spectrophotometric reader.
Each assay microtiter plate contains wells with vehicle instead of compound as controls for the non-inhibited enzyme (100% CTL; ‘HIGH’) and wells without acetyl-CoA as controls for non-specific NADH degradation (0% CTL; ‘LOW’).
The slope S is used for calculation of % CTL=(S(compound)−S(‘LOW’))/(S(‘HIGH’)−S(‘LOW’))100. Compounds will give values between 100% CTL (no inhibition) and 0% CTL (complete inhibition).
For IC50 value determination, the sample slope in the presence of the test compound after subtraction of the low controls (S(compound)−S(‘LOW’)) are used.
An IC50 value is derived from the compound slopes at different dosages after subtraction of the low controls (S(compound)−S(‘LOW’)) by non-linear regression curve fitting (equation y=(A+((B−A)/(1+((C/x)^D))))).
The pIC50 is the IC50 on a negative log10 scale, so that one unit is a factor of ten. A high value points to a small IC50. Compound `CCOc1ccc(OC2CN(c3ccc([C@H](C)NC(=O)c4cnoc4C)cc3)C2)cc1` gave a pIC50 of 6.74. The figure for `CCOc1ccc(OC2CN(c3ccc([C@H](C)NC(=O)C4CCOC4)cc3)C2)cc1` (some centres unmarked) is 5.96. `CCOc1ccc(OC2CN(c3ccc([C@H](C)NC(=O)c4ccoc4)cc3)C2)cc1` showed a pIC50 of 6.68. The compound `CCOc1ccc(OC2CN(c3ccc([C@H](C)NC(=O)C4CC4)cc3)C2)cc1` had a pIC50 of 6.77. The figure for `CC(=O)N[C@@H](C)c1ccc(N2CC(Oc3ccc(OCC4CC4)cc3)C2)cc1` is 7.40.
